Some of these results come from one statement about several compounds together.
Key:
Assay type in all cases: in vivo
Spodoptera littoralis = Spodoptera littoralis (Egyptian cotton leafworm) cotton leaf disc test; conditions: 200 ppm sprayed on cotton leaf discs, 5 L1 larvae, 3 days after treatment; mortality, repellent effect, feeding behaviour, growth regulation
Aedes aegypti = Aedes aegypti (yellow fever mosquito) larvae test; conditions: 2 ppm, L2 larvae in 96-well plates, 2 days; mortality and growth inhibition
Heliothis virescens = Heliothis virescens (tobacco budworm) egg test on artificial diet; conditions: 200 ppm by pipetting, eggs 0-24 h old on artificial diet, 4 days incubation; egg mortality, larval mortality, growth regulation
Plutella xylostella = Plutella xylostella (diamond back moth) larvae test on artificial diet; conditions: 18.2 ppm by pipetting on artificial diet, L2 larvae, 5 days incubation; larval mortality, antifeedant, growth regulation
Tetranychus urticae = Tetranychus urticae (two-spotted spider mite) bean leaf disc test; conditions: 200 ppm sprayed on bean leaf discs, mite populations of mixed ages, 8 days; egg, larval and adult mortality

Compound	control of Spodoptera littoralis (Spodoptera littoralis)	control of Aedes aegypti (Aedes aegypti)	control of Heliothis virescens (Heliothis virescens)	control of Plutella xylostella (Plutella xylostella)	control of Tetranychus urticae (Tetranychus urticae)
O=C(NN=C1CC2(CCN(CC=Cc3ccc(Cl)cc3)CC2)c2ccccc21)c1ccncc1 [II.3]	at least 80%	at least 80%	at least 80%	at least 80%	–
O=C(N/N=C1\CC2(CCN(Cc3ccc(Cl)cc3)CC2)c2ccccc21)c1ccnc(Cl)c1 [III.1, 2-chloroisonicotinic acid [1′-(4-chlorobenzyl)spiro[indan-1-ylidene-3,4′-piperidine]]hydrazide]	at least 80%	–	at least 80%	–	–
O=C(N/N=C1\CC2(CCN(C/C=C/c3ccc(Cl)cc3)CC2)c2ccccc21)c1ccnc(Cl)c1 [III.3, 2-chloroisonicotinic acid [1′-[trans-3-(4-chlorophenyl)allyl]spiro[indan-1-ylidene-3,4′-piperidine]]hydrazide]	at least 80%	at least 80%	at least 80%	at least 80%	–
O=C(NN=C1CC2(CCN(CC=Cc3ccc(C(F)(F)F)cc3)CC2)c2ccccc21)c1ccnc(Cl)c1 [III.6]	–	–	at least 80%	at least 80%	–
O=C(NN=C1CC2(CCN(CC=Cc3ccc(OC(F)(F)F)cc3)CC2)c2ccccc21)c1ccnc(Cl)c1 [III.7]	at least 80%	at least 80%	at least 80%	at least 80%	–
O=C(NN=C1CC2(CCN(CC=Cc3ccc(Cl)cc3)CC2)c2cc(F)ccc21)c1ccnc(Cl)c1 [III.26]	at least 80%	at least 80%	at least 80%	at least 80%	at least 80%
O=C(NN=C1CC2(CCN(CC=Cc3ccc(C(F)(F)F)cc3)CC2)c2cc(F)ccc21)c1ccnc(Cl)c1 [III.29]	at least 80%	at least 80%	at least 80%	at least 80%	–
O=C(NN=C1CC2(CCN(CC=Cc3ccc(OC(F)(F)F)cc3)CC2)c2cc(F)ccc21)c1ccnc(Cl)c1 [III.30]	at least 80%	at least 80%	at least 80%	at least 80%	–
O=C(N/N=C1\CC2(CCN(C/C=C/c3ccc(Cl)cc3)CC2)c2cc(Cl)ccc21)c1ccnc(Cl)c1 [III.49, 2-chloroisonicotinic acid [5-chloro-1′-[trans-3-(4-chlorophenyl)allyl]spiro[indan-1-ylidene-3,4′-piperidine]]hydrazide]	at least 80%	at least 80%	at least 80%	at least 80%	–
O=C(NN=C1CC2(CCN(CC=Cc3ccc(C(F)(F)F)cc3)CC2)c2cc(Cl)ccc21)c1ccnc(Cl)c1 [III.52]	at least 80%	at least 80%	at least 80%	at least 80%	–
O=C(NN=C1CC2(CCN(CC=Cc3ccc(OC(F)(F)F)cc3)CC2)c2cc(Cl)ccc21)c1ccnc(Cl)c1 [III.53]	at least 80%	at least 80%	at least 80%	at least 80%	–
O=C(NN=C1CC2(CCN(CC=Cc3ccc(Cl)cc3)CC2)c2ccc(Cl)cc21)c1ccnc(Cl)c1 [III.210]	–	–	at least 80%	at least 80%	–
O=C(NN=C1CC2(CCN(CC=Cc3ccc(C(F)(F)F)cc3)CC2)c2ccc(Cl)cc21)c1ccnc(Cl)c1 [III.213]	–	at least 80%	at least 80%	at least 80%	–
O=C(NN=C1CC2(CCN(CC=Cc3ccc(OC(F)(F)F)cc3)CC2)c2ccc(Cl)cc21)c1ccnc(Cl)c1 [III.214]	at least 80%	at least 80%	at least 80%	at least 80%	–
N/N=C1\CC2(CCN(C/C=C/c3ccc(Cl)cc3)CC2)c2ccccc21 [LXIX.1, 1′-[trans-3-(4-chlorophenyl)allyl]spiro[(indan-1-ylidene)hydrazine-3,4′-piperidine]]	at least 80%	–	–	at least 80%	–
O=C(NN=C1CC2(CCN(CC=Cc3ccc(Cl)cc3)CC2)c2ccccc21)c1ccccc1 [LXIX.2]	–	–	at least 80%	at least 80%	–
O=C(NN=C1CC2(CCN(CC=Cc3ccc(Cl)cc3)CC2)c2ccccc21)c1ccco1 [LXIX.3]	–	–	at least 80%	at least 80%	–
O=C(NN=C1CC2(CCN(CC=Cc3ccc(Cl)cc3)CC2)c2ccccc21)Nc1cccc(C(F)(F)F)c1 [LXIX.12]	–	–	–	at least 80%	–

Compound	control of Spodoptera littoralis (Spodoptera littoralis)	control of Aedes aegypti (Aedes aegypti)	control of Heliothis virescens (Heliothis virescens)	control of Plutella xylostella (Plutella xylostella)	control of Tetranychus urticae (Tetranychus urticae)
O=C(NN=C1CC2(CCN(CC=Cc3ccc(Cl)cc3)CC2)c2ccccc21)c1ccc(C(F)(F)F)cc1 [LXIX.13]	at least 80%	–	at least 80%	at least 80%	–
O=C(NN=C1CC2(CCN(CC=Cc3ccc(Cl)cc3)CC2)c2ccccc21)c1ccccc1Cl [LXIX.16]	at least 80%	–	at least 80%	at least 80%	–
COc1cc(C(=O)NN=C2CC3(CCN(CC=Cc4ccc(Cl)cc4)CC3)c3ccccc32)cc(Cl)n1 [LXIX.20]	at least 80%	–	at least 80%	at least 80%	–
Cc1cc(C(=O)NN=C2CC3(CCN(CC=Cc4ccc(Cl)cc4)CC3)c3ccccc32)cc(Cl)n1 [LXIX.21]	at least 80%	at least 80%	at least 80%	at least 80%	at least 80%
Nc1ncccc1C(=O)NN=C1CC2(CCN(CC=Cc3ccc(Cl)cc3)CC2)c2ccccc21 [LXIX.22]	at least 80%	at least 80%	at least 80%	at least 80%	–
O=C(NN=C1CC2(CCN(Cc3ccc(OC(F)(F)F)cc3)CC2)c2ccccc21)c1ccnc(Cl)c1 [LXVIII.3]	at least 80%	–	–	–	–
O=C(NN=C1CC2(CCN(Cc3ccc(C(F)(F)F)cc3)CC2)c2ccccc21)c1ccnc(Cl)c1 [LXVIII.4]	at least 80%	–	at least 80%	–	–
CCn1nnc(-c2ccc(CN3CCC4(CC3)CC(=NNC(=O)c3ccnc(Cl)c3)c3ccccc34)cc2)n1 [LXVIII.6]	–	–	at least 80%	–	–
N#Cc1ccc(CN2CCC3(CC2)CC(=NNC(=O)c2ccnc(Cl)c2)c2ccccc23)cc1 [LXVIII.7]	–	–	at least 80%	–	–
O=C(NN=C1CC2(CCN(Cc3ccc(F)cc3)CC2)c2ccccc21)c1ccnc(Cl)c1 [LXVIII.8]	at least 80%	–	at least 80%	at least 80%	–
O=C(NN=C1CC2(CCN(Cc3ccccc3)CC2)c2ccccc21)c1ccnc(Cl)c1 [LXVIII.9]	at least 80%	–	at least 80%	–	–
O=C(NN=C1CC2(CCN(Cc3cccc(Cl)c3)CC2)c2ccccc21)c1ccnc(Cl)c1 [LXVIII.11]	at least 80%	–	at least 80%	–	–
CC(c1ccccc1)N1CCC2(CC1)CC(=NNC(=O)c1ccnc(Cl)c1)c1ccccc12 (centres unmarked) [LXVIII.12]	at least 80%	at least 80%	at least 80%	–	–
O/N=C1\CC2(CCN(C/C=C/c3ccc(Cl)cc3)CC2)c2ccccc21 [LXX.1, 1′-[trans-3-(4-chlorophenyl)allyl]spiro[(indan-1-one)oxime-3,4′-piperidine]]	–	–	–	at least 80%	–
O=C(NN=C1CC2(CCN(CC=Cc3ccc(Cl)cc3)CC2)c2ccccc21)c1cc(Cl)nc(Cl)c1 [V.3]	at least 80%	at least 80%	at least 80%	at least 80%	–
COC(=O)NN=C1CC2(CCN(CC=Cc3ccc(Cl)cc3)CC2)c2ccccc21 [XII.3]	–	–	at least 80%	at least 80%	–
O=C(NCc1cccnc1)NN=C1CC2(CCN(CC=Cc3ccc(Cl)cc3)CC2)c2ccccc21 [XVII.3]	at least 80%	–	–	–	–
